Experimental data reported in PMC6461802, “Coupling of ssRNA cleavage with DNase activity in type III-A CRISPR-Csm revealed by cryo-EM and biochemistry” (Cell Research, 2019).
These are yes or no findings as the source states them, for the method shown. Some entries that bind do so weakly or less than the wild type.

Experiments:
[1] = target: T1, Cas10 of the Streptococcus thermophilus type III-A Csm complex (Streptococcus thermophilus DGCC8004); experiment: cryo-EM structure; apo state: StCsm complex with 40 nt crRNA, wild-type Csm3; big (3.4 Å) and small (3.3 Å) particle populations; ~0.4 mg/mL, buffer 10 mM Tris-HCl pH 8.0, 150 mM NaCl, 3 mM DTT; both purified
T1 sequence: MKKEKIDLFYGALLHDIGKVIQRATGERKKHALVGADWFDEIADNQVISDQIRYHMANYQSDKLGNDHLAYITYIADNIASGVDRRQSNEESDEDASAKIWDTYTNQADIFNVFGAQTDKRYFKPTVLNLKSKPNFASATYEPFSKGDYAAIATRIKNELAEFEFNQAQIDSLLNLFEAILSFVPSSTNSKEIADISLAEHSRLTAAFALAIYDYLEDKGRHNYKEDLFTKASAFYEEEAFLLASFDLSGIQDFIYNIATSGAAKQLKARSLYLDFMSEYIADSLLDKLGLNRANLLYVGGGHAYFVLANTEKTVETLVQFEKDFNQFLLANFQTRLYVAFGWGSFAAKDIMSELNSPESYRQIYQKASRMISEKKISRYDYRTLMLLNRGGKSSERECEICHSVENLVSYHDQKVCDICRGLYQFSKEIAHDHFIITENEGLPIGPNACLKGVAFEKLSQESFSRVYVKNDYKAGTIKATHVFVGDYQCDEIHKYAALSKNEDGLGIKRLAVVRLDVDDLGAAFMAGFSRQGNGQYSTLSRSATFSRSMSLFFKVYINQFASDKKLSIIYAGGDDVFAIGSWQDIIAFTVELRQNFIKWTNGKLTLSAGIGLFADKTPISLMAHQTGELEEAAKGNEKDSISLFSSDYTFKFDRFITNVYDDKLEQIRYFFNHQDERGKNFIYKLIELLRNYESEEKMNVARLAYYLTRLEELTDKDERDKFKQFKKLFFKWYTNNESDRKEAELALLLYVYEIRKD

[2] = target: T2, Csm3 of the Streptococcus thermophilus type III-A Csm complex (wild type, apo state) (Streptococcus thermophilus DGCC8004); experiment: as above
T2 sequence: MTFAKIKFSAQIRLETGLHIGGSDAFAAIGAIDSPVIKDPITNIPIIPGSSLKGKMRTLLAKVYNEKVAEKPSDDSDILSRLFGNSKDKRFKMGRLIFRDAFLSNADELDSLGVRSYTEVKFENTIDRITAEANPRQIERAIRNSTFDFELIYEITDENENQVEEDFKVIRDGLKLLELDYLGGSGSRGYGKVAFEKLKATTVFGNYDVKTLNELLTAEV

[3] = target: T1, Cas10 of the Streptococcus thermophilus type III-A Csm complex (Streptococcus thermophilus DGCC8004); experiment: cryo-EM structure; target ssRNA-bound state: StCsm complex with 40 nt crRNA and 49 nt target ssRNA, Csm3 D33A; big (3.4 Å) and small (3.5 Å) particle populations; ~0.4 mg/mL, buffer 10 mM Tris-HCl pH 8.0, 150 mM NaCl, 3 mM DTT; both purified
[4] = target: T3, Csm3 D33A of the Streptococcus thermophilus type III-A Csm complex (target ssRNA-bound state) (Streptococcus thermophilus DGCC8004); experiment: as above
T3 sequence: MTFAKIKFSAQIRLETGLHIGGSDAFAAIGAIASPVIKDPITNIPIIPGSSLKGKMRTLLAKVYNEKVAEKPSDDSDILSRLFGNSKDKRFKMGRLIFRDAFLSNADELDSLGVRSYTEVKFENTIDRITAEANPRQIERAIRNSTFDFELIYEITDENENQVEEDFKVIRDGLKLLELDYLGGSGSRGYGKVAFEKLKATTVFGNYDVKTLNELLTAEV

[5] = target: T4, Csm2 of the Streptococcus thermophilus type III-A Csm complex (Streptococcus thermophilus DGCC8004); experiment: cryo-EM structure; apo state: StCsm complex with 40 nt crRNA, wild-type Csm3; big (3.4 Å) and small (3.3 Å) particle populations; ~0.4 mg/mL, buffer 10 mM Tris-HCl pH 8.0, 150 mM NaCl, 3 mM DTT; both purified
T4 sequence: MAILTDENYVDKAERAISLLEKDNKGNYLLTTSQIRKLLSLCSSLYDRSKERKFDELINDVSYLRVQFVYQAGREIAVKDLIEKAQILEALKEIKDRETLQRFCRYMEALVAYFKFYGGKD

[6] = target: T4, Csm2 of the Streptococcus thermophilus type III-A Csm complex (Streptococcus thermophilus DGCC8004); experiment: cryo-EM structure; target ssRNA-bound state: StCsm complex with 40 nt crRNA and 49 nt target ssRNA, Csm3 D33A; big (3.4 Å) and small (3.5 Å) particle populations; ~0.4 mg/mL, buffer 10 mM Tris-HCl pH 8.0, 150 mM NaCl, 3 mM DTT; both purified

Measured: binding

B1: Csm2 of the Streptococcus thermophilus type III-A Csm complex (natural protein, Streptococcus thermophilus DGCC8004)
chain: MAILTDENYVDKAERAISLLEKDNKGNYLLTTSQIRKLLSLCSSLYDRSKERKFDELINDVSYLRVQFVYQAGREIAVKDLIEKAQILEALKEIKDRETLQRFCRYMEALVAYFKFYGGKD
notes: Csm2, Streptococcus thermophilus DGCC8004; csm2 is present both on the untagged gene cassette and on the His-tag plasmid, so the 3 or 5 copies in the complex may be a mix of tagged and untagged chains; No tag removal is described; also called Csm2a; Csm2b
binds: [1] | [2] | [3] | [4]

B2: Csm5 of the Streptococcus thermophilus type III-A Csm complex (protein, UniProt A0A0A7HF79 1-357)
chain: MKNDYRTFKLSLLTLAPIHIGNGEKYTSREFIYENKKFYFPDMGKFYNKMVEKRLAEKFEAFLIQTRPNARNNRLISFLNDNRIAERSFGGYSISETGLESDRNPNSAGAINEVNKFIRDAFGNPYIPGSSLKGAIRTILMNTTPKWNNENAVNDFGRFPKENKNLIPWGPKKGKEYDDLFNAIRVSDSKPFDNKRLILVQKWDYSAKTNKAKPLPLYRESISPLTKIEFEITTTTDEAGRLIEELGKRAQAFYKDYKAFFLSEFPDDKIQANLQYPIYLGAGSGAWTKTLFKQADGILQRRYSRMKTKMVKKGVLKLTKAPLKIVKIPSGNHSLIKNHESFYEMGKANFMIKEIDK
binds: [5] | [6]
